Experimental data as given in article PMC5128810.
No constants are given. Whether binding was seen depends on the method and setting. In cells and extracts the contact can be indirect. Some entries that bind do so weakly or less than the wild type. Sequences can lack the tags named with a protein.

Amino acid sequences for entries named in this document (tags omitted).
UniProt P06537: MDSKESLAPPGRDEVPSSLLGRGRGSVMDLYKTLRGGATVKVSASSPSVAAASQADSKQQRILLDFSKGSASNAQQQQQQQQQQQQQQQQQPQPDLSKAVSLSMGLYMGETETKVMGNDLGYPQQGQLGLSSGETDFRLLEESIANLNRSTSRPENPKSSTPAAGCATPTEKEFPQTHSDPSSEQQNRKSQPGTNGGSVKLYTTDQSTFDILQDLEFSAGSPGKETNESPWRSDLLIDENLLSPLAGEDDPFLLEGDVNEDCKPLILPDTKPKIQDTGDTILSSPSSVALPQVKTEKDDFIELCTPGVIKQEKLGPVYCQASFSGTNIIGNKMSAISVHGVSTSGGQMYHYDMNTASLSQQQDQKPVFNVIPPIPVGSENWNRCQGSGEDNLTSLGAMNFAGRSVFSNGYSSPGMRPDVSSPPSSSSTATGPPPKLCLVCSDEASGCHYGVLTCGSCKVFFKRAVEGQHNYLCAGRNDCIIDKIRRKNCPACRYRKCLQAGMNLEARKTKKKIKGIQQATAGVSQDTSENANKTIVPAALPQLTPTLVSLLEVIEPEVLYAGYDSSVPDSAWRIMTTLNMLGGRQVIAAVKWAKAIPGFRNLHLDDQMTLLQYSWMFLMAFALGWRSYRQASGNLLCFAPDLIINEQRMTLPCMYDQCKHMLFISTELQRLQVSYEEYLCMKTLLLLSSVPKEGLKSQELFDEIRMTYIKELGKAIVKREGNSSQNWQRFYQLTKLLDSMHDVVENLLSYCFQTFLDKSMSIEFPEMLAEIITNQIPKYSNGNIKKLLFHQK

Molecular target: glucocorticoid receptor (mouse (endogenous in mouse MSCs)) (UniProt P06537)
Assay: co-IP; endogenous proteins from mouse MSCs at day 0, 3 and 5 of osteogenic induction with 10^-7 M dexamethasone; about 350 ug pre-cleared lysate incubated with total GR antibody (D6H2L) or HDAC6 antibody (ab12173) overnight at 4 °C, Protein A/G beads, western blot

- binding: binds
B1: Histone Deacetylase 6 (protein, UniProt Q9Z2V5 1-1149)
chain: MTSTGQDSSTRQRKSRHNPQSPLQESSATLKRGGKKCAVPHSSPNLAEVKKKGKMKKLSQPAEEDLVVGLQGLDLNPETRVPVGTGLVFDEQLNDFHCLWDDSFPESPERLHAIREQLILEGLLGRCVSFQARFAEKEELMLVHSLEYIDLMETTQYMNEGELRVLAETYDSVYLHPNSYSCACLATGSVLRLVDALMGAEIRNGMAVIRPPGHHAQHNLMDGYCMFNHLAVAARYAQKKHRIQRVLIVDWDVHHGQGTQFIFDQDPSVLYFSIHRYEHGRFWPHLKASNWSTIGFGQGQGYTINVPWNQTGMRDADYIAAFLHILLPVASEFQPQLVLVAAGFDALHGDPKGEMAATPAGFAHLTHLLMGLAGGKLILSLEGGYNLRALAKGVSASLHTLLGDPCPMLESCVVPCASAQTSIYCTLEALEPFWEVLERSVETQEEDEVEEAVLEEEEEEGGWEATALPMDTWPLLQNRTGLVYDEKMMSHCNLWDNHHPETPQRILRIMCHLEEVGLAARCLILPARPALDSELLTCHSAEYVEHLRTTEKMKTRDLHREGANFDSIYICPSTFACAKLATGAACRLVEAVLSGEVLNGIAVVRPPGHHAEPNAACGFCFFNSVAVAARHAQIIAGRALRILIVDWDVHHGNGTQHIFEDDPSVLYVSLHRYDRGTFFPMGDEGASSQVGRDAGIGFTVNVPWNGPRMGDADYLAAWHRLVLPIAYEFNPELVLISAGFDAAQGDPLGGCQVTPEGYAHLTHLLMGLAGGRIILILEGGYNLASISESMAACTHSLLGDPPPQLTLLRPPQSGALVSISEVIQVHRKYWRSLRLMKMEDKEECSSSRLVIKKLPPTASPVSAKEMTTPKGKVPEESVRKTIAALPGKESTLGQAKSKMAKAVLAQGQSSEQAAKGTTLDLATSKETVGGATTDLWASAAAPENFPNQTTSVEALGETEPTPPASHTNKQTTGASPLQGVTAQQSLQLGVLSTLELSREAEEAHDSEEGLLGEAAGGQDMNSLMLTQGFGDFNTQDVFYAVTPLSWCPHLMAVCPIPAAGLDVSQPCKTCGTVQENWVCLTCYQVYCSRYVNAHMVCHHEASEHPLVLSCVDLSTWCYVCQAYVHHEDLQDVKNAAHQNKFGEDMPHSH
